These are yes or no findings as the source states them, for the method shown. In cells and extracts the contact can be indirect. Some results given as binding are weak or reduced against the parent protein; the word gives no strength. Blank lines part the entries; values can stand above or below the molecule they belong to.
Experiments:
Assay in all cases: co-IP; forward and reciprocal co-IP of endogenous symplekin and ERK1/2 in Caco-2 cells with or without EGF (200 ng/ml); blots with antibodies against symplekin or ERK1/2; IP buffer 20 mM HEPES pH 8.0, 1.5 mM MgCl2, 0.2 mM EDTA, 0.5% NP40, 10% glycerol
[1] = biological target: T1, symplekin (human (endogenous in HT-29 and Caco-2)) (UniProt Q92797)
T1 sequence: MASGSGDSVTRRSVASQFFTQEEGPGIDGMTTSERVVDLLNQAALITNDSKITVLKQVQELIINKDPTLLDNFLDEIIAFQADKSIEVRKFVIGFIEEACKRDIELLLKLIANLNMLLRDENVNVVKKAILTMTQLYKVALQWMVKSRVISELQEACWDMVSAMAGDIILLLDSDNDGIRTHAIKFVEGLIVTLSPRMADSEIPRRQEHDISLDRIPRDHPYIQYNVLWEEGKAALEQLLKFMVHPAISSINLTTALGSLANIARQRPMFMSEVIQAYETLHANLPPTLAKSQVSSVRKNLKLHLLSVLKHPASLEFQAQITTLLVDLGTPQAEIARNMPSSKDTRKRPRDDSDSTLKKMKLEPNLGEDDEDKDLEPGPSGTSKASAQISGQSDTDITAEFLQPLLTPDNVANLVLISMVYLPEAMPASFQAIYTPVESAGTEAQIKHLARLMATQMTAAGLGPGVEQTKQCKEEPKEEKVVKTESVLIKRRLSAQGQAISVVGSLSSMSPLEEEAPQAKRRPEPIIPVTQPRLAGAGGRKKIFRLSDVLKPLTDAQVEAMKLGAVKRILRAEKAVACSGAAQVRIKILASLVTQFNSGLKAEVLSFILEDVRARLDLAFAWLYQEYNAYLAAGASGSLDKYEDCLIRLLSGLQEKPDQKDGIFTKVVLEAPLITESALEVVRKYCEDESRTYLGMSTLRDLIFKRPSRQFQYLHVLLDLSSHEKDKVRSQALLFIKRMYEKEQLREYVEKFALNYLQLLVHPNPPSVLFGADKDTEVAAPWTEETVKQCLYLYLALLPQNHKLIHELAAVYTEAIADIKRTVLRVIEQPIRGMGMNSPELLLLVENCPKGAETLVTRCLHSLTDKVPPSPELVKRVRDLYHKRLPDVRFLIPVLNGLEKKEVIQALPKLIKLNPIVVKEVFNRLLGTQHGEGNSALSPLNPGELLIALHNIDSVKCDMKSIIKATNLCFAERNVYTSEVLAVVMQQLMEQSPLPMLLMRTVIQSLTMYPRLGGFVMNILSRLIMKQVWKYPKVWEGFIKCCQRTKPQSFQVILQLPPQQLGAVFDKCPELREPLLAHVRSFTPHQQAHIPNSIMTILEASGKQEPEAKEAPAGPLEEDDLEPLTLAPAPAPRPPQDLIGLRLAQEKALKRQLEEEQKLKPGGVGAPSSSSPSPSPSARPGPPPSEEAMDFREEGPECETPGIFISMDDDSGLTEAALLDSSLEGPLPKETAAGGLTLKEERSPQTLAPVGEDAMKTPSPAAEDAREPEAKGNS

Sequences of proteins named here, by UniProt entry; tags and fusion partners are left off.
UniProt P27361: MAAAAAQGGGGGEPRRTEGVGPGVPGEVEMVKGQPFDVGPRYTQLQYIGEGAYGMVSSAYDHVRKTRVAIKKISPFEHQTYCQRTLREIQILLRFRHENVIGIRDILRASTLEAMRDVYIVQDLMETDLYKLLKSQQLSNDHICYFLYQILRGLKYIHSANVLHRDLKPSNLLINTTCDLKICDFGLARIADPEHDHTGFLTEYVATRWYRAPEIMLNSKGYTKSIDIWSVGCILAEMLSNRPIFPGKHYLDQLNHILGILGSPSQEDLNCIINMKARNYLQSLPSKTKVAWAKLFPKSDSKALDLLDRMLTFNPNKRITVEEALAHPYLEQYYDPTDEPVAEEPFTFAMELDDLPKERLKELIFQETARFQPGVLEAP
UniProt P28482: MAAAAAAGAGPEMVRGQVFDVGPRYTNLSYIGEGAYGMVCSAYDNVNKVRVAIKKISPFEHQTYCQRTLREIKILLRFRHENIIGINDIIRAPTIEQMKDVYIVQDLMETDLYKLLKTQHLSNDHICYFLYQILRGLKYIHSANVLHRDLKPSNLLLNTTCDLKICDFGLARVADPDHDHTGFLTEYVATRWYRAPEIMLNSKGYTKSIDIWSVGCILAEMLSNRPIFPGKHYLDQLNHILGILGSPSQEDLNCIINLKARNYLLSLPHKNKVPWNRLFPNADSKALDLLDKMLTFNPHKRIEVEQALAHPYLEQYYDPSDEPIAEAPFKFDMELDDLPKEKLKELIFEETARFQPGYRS

[2] = biological target: extracellular signal-regulated kinase 1 (ERK1 of ERK1/2) (human (endogenous in Caco-2)) (UniProt P27361)
[3] = biological target: extracellular signal-regulated kinase 2 (ERK2 of ERK1/2) (human (endogenous in Caco-2)) (UniProt P28482)

- binding [1]: binds
Molecule: extracellular signal-regulated kinase 1 (ERK1 of ERK1/2) (from UniProt P27361 1-379) (enzyme)

- binding [1]: binds
Molecule: extracellular signal-regulated kinase 2 (ERK2 of ERK1/2) (from UniProt P28482 1-360) (enzyme)

- binding [2]: binds
- binding [3]: binds
B1: symplekin (protein, UniProt Q92797 1-1274)
chain: T1 sequence

Reference: paper PMC5476558
